From patent US8119681B2, “2-[1-phenyl-5-hydroxy or methoxy-4alpha-methyl-hexahydrocyclopenta [ƒ]indazole-5-YL]ethyl phenyl derivatives as glucocorticoid receptor ligands” (Merck Sharp & Dohme Corp., priority 2006, dated 2012)
Some of these results come from one statement about several compounds together.

Legend:
[1] = target: T1, glucocorticoid receptor (GR) (Homo sapiens, UniProt P04150); test: Ligand binding assay (GR BIND), 3H-dexamethasone displacement, HeLa cell lysate; conditions: calculated using DEX as a reference
T1 construct: endogenous in cells; host or cells: HeLa (ATCC) cell lysate supernatant
T1 sequence (P04150 1-777): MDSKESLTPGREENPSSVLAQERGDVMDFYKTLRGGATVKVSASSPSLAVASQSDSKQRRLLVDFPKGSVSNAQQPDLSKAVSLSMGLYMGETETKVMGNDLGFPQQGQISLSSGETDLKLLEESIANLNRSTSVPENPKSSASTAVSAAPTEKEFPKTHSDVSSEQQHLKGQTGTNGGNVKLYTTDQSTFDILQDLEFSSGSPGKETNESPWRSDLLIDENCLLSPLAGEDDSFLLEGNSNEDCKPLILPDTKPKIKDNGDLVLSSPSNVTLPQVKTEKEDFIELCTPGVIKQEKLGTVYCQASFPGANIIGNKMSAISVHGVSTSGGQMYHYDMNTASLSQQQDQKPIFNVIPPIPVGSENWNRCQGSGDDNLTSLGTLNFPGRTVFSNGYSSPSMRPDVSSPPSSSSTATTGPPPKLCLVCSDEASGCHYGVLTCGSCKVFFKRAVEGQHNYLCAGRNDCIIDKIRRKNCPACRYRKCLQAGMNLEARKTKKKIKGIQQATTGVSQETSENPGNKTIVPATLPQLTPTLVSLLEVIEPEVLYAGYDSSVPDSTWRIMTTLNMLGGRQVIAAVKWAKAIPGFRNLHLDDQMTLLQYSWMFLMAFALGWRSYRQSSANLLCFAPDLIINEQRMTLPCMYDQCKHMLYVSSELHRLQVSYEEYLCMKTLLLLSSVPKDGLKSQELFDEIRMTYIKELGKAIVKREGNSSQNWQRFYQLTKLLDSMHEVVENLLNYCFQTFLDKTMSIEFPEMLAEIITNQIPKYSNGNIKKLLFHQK
In short: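 HeLa cell lysate supernatant in TEGM (pH 7.2, molybdate) incubated overnight at 4 °C with 3H-dexamethasone trace (6 nM stock) and serially diluted compound, 2% EtOH final. Bound receptor captured on hydroxylapatite, filtered and counted by scintillation; IC50 calculated with dexamethasone as reference.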

human GR = target: T2, human GR (Homo sapiens, UniProt P04150); test: Trans-Activation Modulation of Glucocorticoid Receptor (GRAMMER), MMTV-LUC reporter gene; type: cell-based; set-up: endogenous in cells; conditions: GRAMMER versus GITAR
T2 sequence (P04150 1-777): T1 sequence (P04150 1-777)

| SMILES | IC50 [1] [nM] | maximal transactivation activity compared with maximal transrepression activity (human GR) |
| --- | --- | --- |
| C[C@@H](NS(=O)(=O)CC(F)(F)F)c1c(F)cccc1CC[C@]1(O)CCC2=Cc3c(cnn3-c3ccc(F)cc3)C[C@@]21C [Example 96, 2,2,2-trifluoro-N-[(1R)-1-(2-fluoro-6-{2-[(4αS,5R)-1-(4-fluorophenyl)-5-hydroxy-4α-methyl-1,4,4α,5,6,7-hexahydrocyclopenta[f]indazol-5-yl]ethyl}phenyl)ethyl]ethanesulfonamide] | < 1000 | maximal transactivation activity less then maximal transrepression activity |
| CC1CN1C(=O)c1ccccc1CC[C@]1(O)CCC2=Cc3c(cnn3-c3ccc(F)cc3)C[C@@]21C (stereo partly drawn) [Example 73, (4αS,5R)-1-(4-fluorophenyl)-4α-methyl-5-(2-{2-[(2-methylaziridin-1-yl)carbonyl]phenyl}ethyl)-1,4,4α,5,6,7-hexahydrocyclopenta[f]indazol-5-ol] | < 1000 | maximal transactivation activity less then maximal transrepression activity |
| COC(=O)Nc1ccc(F)cc1CC[C@]1(O)CCC2=Cc3c(cnn3-c3ccc(F)cc3)C[C@@]21C [Example 124, methyl (4-fluoro-6-{2-[(4αS,5R)-1-(4-fluorophenyl)-5-hydroxy-4α-methyl-1,4,4α,5,6,7-hexahydrocyclopenta[f]indazol-5-yl]ethyl}phenyl)carbamate] | < 1000 | maximal transactivation activity less then maximal transrepression activity |
| C[C@]12Cc3cnn(-c4ccc(Cl)cc4)c3C=C1CC[C@@]2(O)CCc1ccccc1C(N)=O [Example 184, 2-{2-[(4αS,5R)-1-(4-chlorophenyl)-5-hydroxy-4α-methyl-1,4,4α,5,6,7-hexahydrocyclopenta[f]indazol-5-yl]ethyl}benzamide] | < 1000 | maximal transactivation activity less then maximal transrepression activity |
| C[C@]12Cc3cnn(-c4ccc(F)cc4)c3C=C1CC[C@@]2(O)CCc1cccc(F)c1C1(NS(=O)(=O)CC(F)(F)F)CC1 [Example 102, 2,2,2-trifluoro-N-[1-(2-fluoro-6-{2-[(4αS,5R)-1-(4-fluorophenyl)-5-hydroxy-4α-methyl-1,4,4α,5,6,7-hexahydrocyclopenta[f]indazol-5-102yl]ethyl}phenyl)cyclopropyl]ethanesulfonamide] | < 1000 | maximal transactivation activity less then maximal transrepression activity |
| C[C@]12Cc3cnn(-c4ccc(F)cc4)c3C=C1CC[C@@]2(O)CCc1cccc(Cl)c1C(N)=O [Example 169, 2-chloro-6-{2-[(4αS,5R)-1-(4-fluorophenyl)-5-hydroxy-4α-methyl-1,4,4α,5,6,7-hexahydrocyclopenta[f]indazol-5-yl]ethyl}benzamide] | < 1000 | maximal transactivation activity less then maximal transrepression activity |
| CN(C)S(=O)(=O)NCc1c(F)cccc1CC[C@]1(O)CCC2=Cc3c(cnn3-c3ccc(F)cc3)C[C@@]21C [Example 89, N′-(2-fluoro-6-{2-[(4αS,5R)-1-(4-fluorophenyl)-5-hydroxy-4α-methyl-1,4,4α,5,6,7-hexahydrocyclopenta[f]indazol-5-yl]ethyl}benzyl)-N,N-dimethylsulfamide] | < 1000 | maximal transactivation activity less then maximal transrepression activity |
| C[C@]12Cc3cnn(-c4ccc(F)cc4)c3C=C1CC[C@@]2(O)CCc1cccc(Cl)c1CC(N)=O [Example 197, 2-(2-chloro-6-{2-[(4αS,5R)-1-(4-fluorophenyl)-5-hydroxy-4α-methyl-1,4,4α,5,6,7-hexahydrocyclopenta[f]indazol-5-yl]ethyl}phenyl)acetamide] | < 1000 | maximal transactivation activity less then maximal transrepression activity |
| CC(C)NC(=O)Nc1ccc(F)cc1CC[C@]1(O)CCC2=Cc3c(cnn3-c3ccc(F)cc3)C[C@@]21C [Example 133, N-(4-fluoro-2-{2-[(4αS,5R)-1-(4-fluorophenyl)-5-hydroxy-4α-methyl-1,4,4α,5,6,7-hexahydrocyclopenta[f]indazol-5-yl]ethyl}phenyl)-N′-isopropylurea] | < 1000 | maximal transactivation activity less then maximal transrepression activity |
| CC(C)[C@@H](C)NC(=O)c1c(F)cccc1CC[C@]1(O)CCC2=Cc3c(cnn3-c3ccc(F)cc3)C[C@@]21C [Example 48, N-[(1R)-1,2-dimethylpropyl]-2-fluoro-6-{2-[(4αS,5R)-1-(4-fluorophenyl)-5-hydroxy-4α-methyl-1,4,4α,5,6,7-hexahydrocyclopenta[f]indazol-5-yl]ethyl}benzamide] | < 1000 | maximal transactivation activity less then maximal transrepression activity |
| Cc1ccc(C(N)=O)c(CC[C@]2(O)CCC3=Cc4c(cnn4-c4ccc(F)cc4)C[C@@]32C)c1 [Example 174, 2-{2-[(4αS,5R)-1-(4-fluorophenyl)-5-hydroxy-4α-methyl-1,4,4α,5,6,7-hexahydrocyclopenta[f]indazol-5-yl]ethyl}-4-methylbenzamide] | < 1000 | maximal transactivation activity less then maximal transrepression activity |
| CC(CNC(=O)c1ccccc1CC[C@]1(O)CCC2=Cc3c(cnn3-c3ccc(F)cc3)C[C@@]21C)C(F)(F)F (stereo partly drawn) [Example 31, 2-{2-[(4αS,5R)-1-(4-fluorophenyl)-5-hydroxy-4α-methyl-1,4,4α,5,6,7-hexahydrocyclopenta[f]indazol-5-yl]ethyl}-N-(3,3,3-trifluoro-2-methylpropyl)benzamide] | < 1000 | maximal transactivation activity less then maximal transrepression activity |
| C[C@]12Cc3cnn(-c4ccc(F)cc4)c3C=C1CC[C@@]2(O)CCc1ccc(C(F)(F)F)cc1C#N [Example 164, 2-{2-[(4αS,5R)-1-(4-fluorophenyl)-5-hydroxy-4α-methyl-1,4,4α,5,6,7-hexahydrocyclopenta[f]indazol-5-yl]ethyl}-5-(trifluoromethyl)benzonitrile] | < 1000 | maximal transactivation activity less then maximal transrepression activity |
| C[C@]12Cc3cnn(-c4ccc(F)cc4)c3C=C1CC[C@@]2(O)CCc1cccc(F)c1C(=O)N1CCC(F)(F)C1 [Example 77, (4αS,5R)-5-(2-{2-[(3,3-difluoropyrrolidin-1-yl)carbonyl]-3-fluorophenyl}ethyl)-1-(4-fluorophenyl)-4α-methyl-1,4,4α,5,6,7-hexahydrocyclopenta[f]indazol-5-ol] | < 1000 | maximal transactivation activity less then maximal transrepression activity |
| C[C@]12Cc3cnn(-c4ccc(F)cc4)c3C=C1CC[C@@]2(O)CCc1cc(C(F)(F)F)ccc1C(N)=O [Example 173, 2-{2-[(4α6,5R)-1-(4-fluorophenyl)-5-hydroxy-4α-methyl-1,4,4α,5,6,7-hexahydrocyclopenta[f]indazol-5-yl]ethyl}-4-(trifluoromethyl)benzamide] | < 1000 | maximal transactivation activity less then maximal transrepression activity |
